Source: patent US10093670B2, “Azabenzimidazole derivative having AMPK-activating activity” (Shionogi & Co., Ltd., priority 2011, dated 2018)
At least one compound was matched to its structure with a doubt left.

By UniProt entry, the sequences of proteins in these tests, tags left out. Where a name states a change or a piece, a line headed by the entry shows the natural chain unless it says otherwise. Residues count along the entry.
UniProt Q13131, 10-559 limits assumed: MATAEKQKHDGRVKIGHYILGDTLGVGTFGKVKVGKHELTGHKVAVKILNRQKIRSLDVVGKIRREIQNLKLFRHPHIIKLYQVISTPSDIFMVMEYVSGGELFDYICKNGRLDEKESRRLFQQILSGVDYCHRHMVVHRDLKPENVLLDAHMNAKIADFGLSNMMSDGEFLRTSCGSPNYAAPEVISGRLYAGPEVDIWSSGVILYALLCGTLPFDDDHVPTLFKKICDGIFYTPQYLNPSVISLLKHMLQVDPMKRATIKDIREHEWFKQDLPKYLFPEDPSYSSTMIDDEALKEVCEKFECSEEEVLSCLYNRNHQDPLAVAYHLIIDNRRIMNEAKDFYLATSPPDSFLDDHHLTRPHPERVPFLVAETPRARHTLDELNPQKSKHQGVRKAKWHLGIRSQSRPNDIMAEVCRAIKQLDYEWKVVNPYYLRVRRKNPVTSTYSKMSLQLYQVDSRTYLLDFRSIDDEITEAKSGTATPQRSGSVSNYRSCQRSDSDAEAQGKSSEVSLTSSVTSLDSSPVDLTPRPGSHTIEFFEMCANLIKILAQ
UniProt Q9Y478: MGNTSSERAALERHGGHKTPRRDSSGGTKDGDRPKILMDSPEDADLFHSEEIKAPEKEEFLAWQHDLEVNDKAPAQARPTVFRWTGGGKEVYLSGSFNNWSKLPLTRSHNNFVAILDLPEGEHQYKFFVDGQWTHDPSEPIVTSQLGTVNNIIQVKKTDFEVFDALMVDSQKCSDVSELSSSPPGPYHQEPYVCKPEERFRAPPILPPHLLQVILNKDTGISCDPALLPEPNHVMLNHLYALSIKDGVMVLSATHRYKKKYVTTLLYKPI
UniProt O43741: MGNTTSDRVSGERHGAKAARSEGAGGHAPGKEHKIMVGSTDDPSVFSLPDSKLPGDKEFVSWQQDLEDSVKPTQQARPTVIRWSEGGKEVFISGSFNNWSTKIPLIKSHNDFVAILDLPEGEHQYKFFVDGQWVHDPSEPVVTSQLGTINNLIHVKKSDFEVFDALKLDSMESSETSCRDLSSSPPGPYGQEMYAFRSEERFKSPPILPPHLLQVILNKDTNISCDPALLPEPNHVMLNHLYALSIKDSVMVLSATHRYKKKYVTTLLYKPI
UniProt P54646: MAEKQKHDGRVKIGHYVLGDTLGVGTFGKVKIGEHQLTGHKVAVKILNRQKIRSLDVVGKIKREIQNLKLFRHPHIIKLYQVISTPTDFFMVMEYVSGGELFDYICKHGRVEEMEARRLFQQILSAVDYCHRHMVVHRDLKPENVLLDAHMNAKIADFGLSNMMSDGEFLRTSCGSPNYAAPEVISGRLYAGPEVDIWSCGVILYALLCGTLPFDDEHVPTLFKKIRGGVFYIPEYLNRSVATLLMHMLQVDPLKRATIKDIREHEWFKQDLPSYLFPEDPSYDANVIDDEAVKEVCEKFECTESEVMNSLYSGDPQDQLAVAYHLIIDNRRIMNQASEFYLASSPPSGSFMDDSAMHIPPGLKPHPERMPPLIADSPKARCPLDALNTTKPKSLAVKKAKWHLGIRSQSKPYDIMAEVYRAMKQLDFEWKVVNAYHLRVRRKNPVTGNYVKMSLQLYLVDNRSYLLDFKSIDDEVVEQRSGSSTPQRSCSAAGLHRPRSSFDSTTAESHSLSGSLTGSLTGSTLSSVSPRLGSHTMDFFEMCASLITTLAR

Columns and labels:
human AMPK α1β1γ1 enzyme = molecular target: T1, human AMPK α1β1γ1 enzyme (Homo sapiens, UniProt Q13131+Q9Y478); assay: Evaluation of AMPK activator, Test Example 1 (mobility-shift kinase assay, FL-Peptide 7); format: biochemical; conditions: human AMPK α1β1γ1, 25° C., 2 hours, 0.2 mM ATP final
T1 construct: purchased Carna Biosciences, Inc
Experimental: The obtained liquid was left to stand for 10 minutes.
The obtained liquid was allowed to react at 25° C. for 2 hours, and 10 μl of 20 mM EDTA was then added thereto to stop the reaction.
To detect phosphorylated fluorescent substrates, the reaction liquid was applied to a measuring device, LabChip EZ Reader II manufactured by Caliper Life Science, Inc., for detecting fluorescence by using differences in mobility due to differences in charge. The setting conditions for the device were pressure, −1.5 PSI; upstream voltage, −2250 V; downstream voltage, −400 V; post sample buffer sip time, 40 seconds; final delay, 120 seconds; and peak order, Product First.
A conversion rate was calculated from the peak heights of the resulting substrate and product. The conversion rate when not containing a compound was used as a control, and a concentration dependent curve was made by plotting the rate of increase in activity to the control at each concentration of a compound.

Human AMPK α2β2γ1 = molecular target: T2, Human AMPK α2β2γ1 (Homo sapiens, UniProt O43741+P54646); assay: Evaluation of AMPK activator, Test Example 2 (CaMKK2-phosphorylated enzyme, mobility-shift kinase assay); format: biochemical; conditions: human AMPK α2β2γ1 phosphorylated by CaMKK2, 25° C., 2 hours
T2 construct: The full length cDNAs of human AMPK β2 (NM_005399.3) and human AMPK α2 (NM_006252.3) were inserted; the full length cDNA of human AMPK γ1 (NM_002733.3) had been inserted into pET28b(+); 6xHis (N); made in house; host or cells: Escherichia coli BL21 CodonPlus (DE3)-RIL (AMPK); BL21 Star (DE3) (CaMKKβ)
Experimental: The full length cDNAs of human AMPK β2 (NM_005399.3) and human AMPK α2 (NM_006252.3) were inserted into the MCS1 and MCS2 of the pETDuet-1 vector to prepare a human AMPK β2 and human AMPK α2 (6× His tag at the 5′ terminus) expressing plasmid. The plasmid was contransfected with an expression plasmid, in which the full length cDNA of human AMPK γ1 (NM_002733.3) had been inserted into pET28b(+), into BL21 CodonPlus (DE3)-RIL to obtain an expression strain. The expression strain was cultured in TB medium, followed by induction with 0.5 mM IPTG, and cultured at 25° C. for 3 hours and then harvested. After ultrasonication, supernatant was collected and applied to Histrap FF column (GE) and RESOUECE Q column (GE) to prepare 12.5 mg of purified sample containing three types of subunit from 1.8 L of broth.
An expression vector, in which the full length cDNA of human CAMKK β (NM_172226.1) had been inserted into pGEX-6P-3, was transfected into BL21 Star (DE3). […]
To detect phosphorylated fluorescent substrates, the reaction liquid was applied to a measuring device, LabChip EZ Reader II manufactured by Caliper Life Science, Inc., for detecting fluorescence by using differences in mobility due to differences in charge. […]
A conversion rate was calculated from the peak heights of the resulting substrate and product. […]

SMILES	EC150 (compound concentration showing 150% relative to the control (100%)) (human AMPK α1β1γ1 enzyme)	EC150 (compound concentration showing 150% relative to the control (100%)) (Human AMPK α2β2γ1)
CN(C)C(=O)[C@H]1C[C@@H](Oc2nc3nc(-c4ccc(C5=CCC(C(=O)O)CC5)cc4)c(Cl)cc3[nH]2)C1 (stereo partly shown) [Compound I-2-129]	15 nM	9.2 nM
CC(C)(CO)C1CCC(Oc2nc3nc(-c4ccc(N5CCOCC5)cc4)c(Cl)cc3[nH]2)CC1 (stereo not shown) [Compound I-3-89]	65 nM	
O=C(O)[C@H]1C[C@H](Oc2nc3nc(-c4ccc(N5CCOCC5)cc4)c(Cl)cc3[nH]2)C1 [Compound I-2-118]	230 nM	
